Source: the supplement of paper PMC10849652
This is one part of the list.

The chains behind the UniProt entries cited, without tags or fusion partners. Where a name states a change or a piece, a line headed by the entry shows the natural chain unless it says otherwise.
UniProt O95147: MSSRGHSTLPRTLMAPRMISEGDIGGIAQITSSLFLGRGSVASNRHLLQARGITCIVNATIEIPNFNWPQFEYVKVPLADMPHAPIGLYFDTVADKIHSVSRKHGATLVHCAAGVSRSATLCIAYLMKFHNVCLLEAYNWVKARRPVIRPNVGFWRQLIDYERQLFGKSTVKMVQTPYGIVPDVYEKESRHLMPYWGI
UniProt Q13409, whole entry, looked up: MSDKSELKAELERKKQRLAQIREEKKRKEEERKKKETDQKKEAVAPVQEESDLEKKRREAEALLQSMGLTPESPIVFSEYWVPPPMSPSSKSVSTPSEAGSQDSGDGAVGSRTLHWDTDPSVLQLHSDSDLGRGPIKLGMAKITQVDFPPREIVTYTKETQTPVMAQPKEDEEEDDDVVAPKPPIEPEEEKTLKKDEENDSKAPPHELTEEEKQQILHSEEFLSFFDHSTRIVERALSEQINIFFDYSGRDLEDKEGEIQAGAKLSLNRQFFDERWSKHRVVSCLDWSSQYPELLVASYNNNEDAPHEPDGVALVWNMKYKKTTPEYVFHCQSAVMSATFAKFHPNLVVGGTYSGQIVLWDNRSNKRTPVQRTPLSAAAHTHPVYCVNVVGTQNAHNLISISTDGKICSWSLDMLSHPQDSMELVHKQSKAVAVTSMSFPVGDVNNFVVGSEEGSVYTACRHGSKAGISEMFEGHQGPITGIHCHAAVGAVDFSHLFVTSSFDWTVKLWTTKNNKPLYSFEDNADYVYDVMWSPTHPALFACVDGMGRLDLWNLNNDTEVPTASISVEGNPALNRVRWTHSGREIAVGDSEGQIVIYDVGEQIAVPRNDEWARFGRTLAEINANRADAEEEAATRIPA
UniProt Q9BVJ7: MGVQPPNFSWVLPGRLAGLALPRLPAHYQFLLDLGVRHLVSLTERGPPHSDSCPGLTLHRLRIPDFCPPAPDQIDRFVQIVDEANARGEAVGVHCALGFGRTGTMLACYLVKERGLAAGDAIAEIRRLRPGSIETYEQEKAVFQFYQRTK
UniProt Q99956: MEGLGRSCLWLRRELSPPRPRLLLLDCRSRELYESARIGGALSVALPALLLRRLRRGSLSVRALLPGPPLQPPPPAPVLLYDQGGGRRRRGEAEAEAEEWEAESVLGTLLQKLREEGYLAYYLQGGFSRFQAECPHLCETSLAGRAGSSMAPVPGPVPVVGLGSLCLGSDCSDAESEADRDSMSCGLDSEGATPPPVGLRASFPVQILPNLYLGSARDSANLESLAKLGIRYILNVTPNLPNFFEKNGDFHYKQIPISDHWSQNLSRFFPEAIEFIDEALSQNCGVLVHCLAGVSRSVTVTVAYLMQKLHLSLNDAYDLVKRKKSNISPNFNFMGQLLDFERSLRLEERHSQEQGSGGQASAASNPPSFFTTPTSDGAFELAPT
UniProt Q7Z388: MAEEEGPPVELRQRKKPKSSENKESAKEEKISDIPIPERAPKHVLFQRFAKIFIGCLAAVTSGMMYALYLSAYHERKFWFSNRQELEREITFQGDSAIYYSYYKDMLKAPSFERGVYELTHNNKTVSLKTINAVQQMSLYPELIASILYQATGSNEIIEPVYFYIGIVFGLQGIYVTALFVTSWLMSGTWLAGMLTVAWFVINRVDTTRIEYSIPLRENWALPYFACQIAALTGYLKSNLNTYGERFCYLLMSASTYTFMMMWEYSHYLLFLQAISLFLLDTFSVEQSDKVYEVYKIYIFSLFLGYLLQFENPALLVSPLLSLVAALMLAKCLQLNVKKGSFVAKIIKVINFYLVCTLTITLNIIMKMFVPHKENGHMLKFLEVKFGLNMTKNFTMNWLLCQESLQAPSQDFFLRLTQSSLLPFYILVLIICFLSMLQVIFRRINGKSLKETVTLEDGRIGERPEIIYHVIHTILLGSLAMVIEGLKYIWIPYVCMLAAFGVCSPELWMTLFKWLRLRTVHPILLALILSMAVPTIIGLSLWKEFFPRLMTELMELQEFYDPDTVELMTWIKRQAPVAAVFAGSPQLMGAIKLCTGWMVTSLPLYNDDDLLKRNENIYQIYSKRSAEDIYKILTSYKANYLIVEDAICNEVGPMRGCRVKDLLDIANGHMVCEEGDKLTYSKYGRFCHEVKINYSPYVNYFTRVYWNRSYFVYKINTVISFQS
UniProt Q9BV94: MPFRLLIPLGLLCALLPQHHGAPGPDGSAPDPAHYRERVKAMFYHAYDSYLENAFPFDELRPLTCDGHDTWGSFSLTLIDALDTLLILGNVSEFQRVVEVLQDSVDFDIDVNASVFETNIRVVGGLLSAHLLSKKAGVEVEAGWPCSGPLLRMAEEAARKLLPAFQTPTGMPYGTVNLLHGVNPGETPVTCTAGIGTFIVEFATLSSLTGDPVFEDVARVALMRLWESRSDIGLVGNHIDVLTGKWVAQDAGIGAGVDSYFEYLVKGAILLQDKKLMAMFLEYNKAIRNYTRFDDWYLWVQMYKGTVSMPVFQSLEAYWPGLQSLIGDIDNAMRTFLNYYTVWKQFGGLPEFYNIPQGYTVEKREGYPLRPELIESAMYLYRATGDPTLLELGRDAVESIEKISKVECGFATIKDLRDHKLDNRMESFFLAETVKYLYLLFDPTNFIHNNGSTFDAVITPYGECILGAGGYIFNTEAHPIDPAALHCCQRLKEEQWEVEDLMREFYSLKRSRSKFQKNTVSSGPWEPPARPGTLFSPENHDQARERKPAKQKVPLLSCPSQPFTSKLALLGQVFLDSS
UniProt Q66K89: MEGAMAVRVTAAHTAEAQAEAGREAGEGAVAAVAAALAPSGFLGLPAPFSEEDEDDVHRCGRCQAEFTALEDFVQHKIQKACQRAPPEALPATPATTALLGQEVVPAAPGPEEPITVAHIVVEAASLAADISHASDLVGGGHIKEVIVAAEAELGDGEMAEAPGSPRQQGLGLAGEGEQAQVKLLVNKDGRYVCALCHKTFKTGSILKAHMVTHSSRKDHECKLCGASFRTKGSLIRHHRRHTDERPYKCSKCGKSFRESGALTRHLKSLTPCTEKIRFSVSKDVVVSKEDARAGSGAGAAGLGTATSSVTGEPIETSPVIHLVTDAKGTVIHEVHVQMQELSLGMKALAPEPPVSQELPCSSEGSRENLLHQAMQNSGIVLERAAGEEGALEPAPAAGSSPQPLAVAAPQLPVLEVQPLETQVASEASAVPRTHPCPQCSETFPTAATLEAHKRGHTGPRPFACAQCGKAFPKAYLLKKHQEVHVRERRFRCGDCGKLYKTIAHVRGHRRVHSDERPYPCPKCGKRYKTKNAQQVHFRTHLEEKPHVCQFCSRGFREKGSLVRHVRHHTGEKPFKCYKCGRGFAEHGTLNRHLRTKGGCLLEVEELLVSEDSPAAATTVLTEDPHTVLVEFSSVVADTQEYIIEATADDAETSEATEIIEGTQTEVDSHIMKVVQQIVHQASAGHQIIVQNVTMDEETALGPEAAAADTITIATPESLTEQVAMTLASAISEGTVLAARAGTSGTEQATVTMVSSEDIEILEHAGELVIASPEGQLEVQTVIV
UniProt O14576, whole entry, looked up: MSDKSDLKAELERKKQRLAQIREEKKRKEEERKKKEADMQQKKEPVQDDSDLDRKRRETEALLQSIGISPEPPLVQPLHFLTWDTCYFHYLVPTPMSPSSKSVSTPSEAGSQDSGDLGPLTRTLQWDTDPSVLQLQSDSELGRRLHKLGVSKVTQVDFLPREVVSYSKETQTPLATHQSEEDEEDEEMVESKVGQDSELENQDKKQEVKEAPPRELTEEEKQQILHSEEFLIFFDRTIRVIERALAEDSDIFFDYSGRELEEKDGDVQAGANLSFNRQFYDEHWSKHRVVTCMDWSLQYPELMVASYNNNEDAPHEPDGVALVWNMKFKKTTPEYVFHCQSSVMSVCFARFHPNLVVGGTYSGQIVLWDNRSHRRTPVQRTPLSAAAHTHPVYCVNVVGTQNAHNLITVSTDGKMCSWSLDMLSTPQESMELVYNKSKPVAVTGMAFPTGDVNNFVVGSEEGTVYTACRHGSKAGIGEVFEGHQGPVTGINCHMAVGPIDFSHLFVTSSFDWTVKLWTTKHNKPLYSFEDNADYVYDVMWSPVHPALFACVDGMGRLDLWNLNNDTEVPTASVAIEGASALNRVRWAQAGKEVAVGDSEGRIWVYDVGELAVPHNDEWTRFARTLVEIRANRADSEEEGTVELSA

Key:
Experiment in all cases: log2 fold change, soluble protein after heating vs DMSO (PISA); higher = thermal stabilisation; K562 lysate, 10 uM; active = over 0.2 and 3.5 SD of the protein, either way, in both replicates (recomputed)
[1] = compound: CCCS(=O)(=O)Nc1ccc(F)c(C(=O)c2c[nH]c3ncc(-c4ccc(Cl)cc4)cc23)c1F [vemurafenib]
Summary of the method: (§1)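 Quantification was by TMTpro 16plex LC-MS/MS with equalised channel sums, applied to the supernatant after 21,000xg for 90 min. Samples were crude K562 extract at 1 mg/mL protein in PBS pH 7.4 with 1 mM MgCl2, treated with 10 μM compound for 30 min, heated for 3 min across 48°C-58°C, pooled and brought to 0.5% NP-40 at 4°C. Values are log-two fold changes in thermal stability relative to solvent controls, from duplicates.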

[2] = compound: CCCS(=O)(=O)Nc1ccc(F)c(C(=O)c2c[nH]c3ncc(Cl)cc23)c1F
Summary of the method: as §1

[3] = compound: CC[C@@H]1C(=O)N(C)c2cnc(Nc3ccc(C(=O)NC4CCN(C)CC4)cc3OC)nc2N1C1CCCC1
Summary of the method: as §1

[4] = compound: CC[C@@H]1C(=O)N(C)c2cnc(Nc3ccc(C(=O)N[C@H]4CC[C@H](N5CCN(CC6CC6)CC5)CC4)cc3OC)nc2N1C(C)C [volasertib]
Summary of the method: as §1

[5] = compound: CCn1cc(-c2ccnc3[nH]c(-c4cccc(CN(C)C)c4)cc23)c(-c2ccc(NC(=O)N(C)C)cc2)n1
Summary of the method: as §1

[6] = compound: CN1CCC(CNc2ccc3ncc(-c4cccc(OC(F)(F)F)c4)n3n2)CC1
Summary of the method: as §1

[7] = compound: CN1CCN(CCOc2cc(OC3CCOCC3)c3c(Nc4c(Cl)ccc5c4OCO5)ncnc3c2)CC1 [saracatinib]
Summary of the method: as §1

[8] = compound: CN1CC[C@H](c2c(O)cc(O)c3c(=O)cc(-c4ccccc4Cl)oc23)[C@H](O)C1 [alvocidib]
Summary of the method: as §1

[9] = compound: CNC(=O)C1=CC=CC=C1NC2=NC(=NC=C2Cl)NC3=C(C=C(C=C3)N4CCOCC4)OC
Summary of the method: as §1

[10] = compound: CNC(=O)c1ccc(Nc2ncc(C(F)(F)F)c(NCc3nccnc3N(C)S(C)(=O)=O)n2)cc1 [defactinib]
Summary of the method: as §1

[11] = compound: CNc1nc(-c2ccc3c(N)n[nH]c3c2)cc(N2C[C@@H](C(=O)NC3CCCCC3)CC[C@H]2C)n1
Summary of the method: as §1

[12] = compound: COC(=O)N[C@@H](C)CNc1nccc(-c2cn(C(C)C)nc2-c2cc(Cl)cc(NS(C)(=O)=O)c2F)n1 [encorafenib]
Summary of the method: as §1

[13] = compound: COC(=O)[C@H](CCSC)NC(=O)C1=C(C=C(C=C1)NC[C@H](CS)N)C2=CC=CC=C2
Summary of the method: as §1

[14] = compound: COc1cc2nc(-c3cc(F)ccc3O)nc(N[C@@H]3CNC[C@H]3C(C)(C)O)c2cc1OC
Summary of the method: as §1

[15] = compound: CCN(CCCOc1ccc2c(Nc3cc(CC(=O)Nc4cccc(F)c4)[nH]n3)ncnc2c1)CCOP(=O)(O)O [barasertib]
Summary of the method: as §1

[16] = compound: CCn1c(C(=O)N(C2CC2)C2CC2)cc2c3c(ncn3C)c(Nc3cc(C)n(C)n3)nc21
Summary of the method: as §1

[17] = compound: CN1CCN(c2nc(C3=C(c4c[nH]c5ccccc45)C(=O)NC3=O)c3ccccc3n2)CC1 [sotrastaurin]
Summary of the method: as §1

[18] = compound: CN1CCc2c(c3ccccc3n2Cc2ccc(C(=O)NO)cc2)C1 [Tubastatin A]
Summary of the method: as §1

[19] = compound: COc1cc(Nc2ncc3c(n2)-c2ccc(Cl)cc2C(c2c(F)cccc2OC)=NC3)ccc1C(=O)O [alisertib]
Summary of the method: as §1

[20] = compound: COc1cc2ncnc(Nc3ccc(F)c(Cl)c3)c2cc1OCCCN1CCOCC1 [gefitinib]
Summary of the method: as §1

Measured: log2 fold change

DUSP14 (UniProt O95147)
inactive: [1] 0.057 | [2] -0.072 | [3] -0.01 | [4] 0.056 | [5] -0.093 | [6] 0.098 | [7] 0.026 | [8] 0.022 | [9] 0.171 | [10] 0.077 | [11] 0.1 | [12] 0.163 | [13] 0.061 | [14] 0.025

DYNC1I2 isoform 2 (UniProt Q13409)
inactive: [1] -0.073 | [2] 0.042 | [15] -0.123 | [3] 0.132 | [4] -0.039 | [16] 0.035 | [5] -0.022 | [6] 0.082 | [7] -0.077 | [17] 0.006 | [8] 0.065 | [18] 0.002 | [9] -0.02 | [10] 0.001 | [11] -0.039 | [12] 0.011 | [13] 0.056 | [14] 0.096

EEF2 (UniProt P13639)
inactive: [1] -0.012 | [2] -0.002 | [15] -0.028 | [3] 0.014 | [4] -0.001 | [16] 0.012 | [5] -0.007 | [6] 0.019 | [7] -0.018 | [17] -0.004 | [8] 0.017 | [18] 0.011 | [9] -0.012 | [10] -0.009 | [11] -0.007 | [12] -0.023 | [13] 0.024 | [19] 0 | [14] -0.013 | [20] -0.023

DUSP23 (UniProt Q9BVJ7)
inactive: [1] 0.031 | [2] 0 | [15] 0.188 | [3] -0.016 | [4] 0.049 | [16] 0.04 | [5] -0.05 | [6] 0.06 | [7] -0.006 | [17] 0.015 | [8] 0.003 | [18] 0.059 | [9] 0.05 | [10] -0.078 | [11] -0.025 | [12] 0.033 | [13] -0.018 | [19] -0.003 | [14] -0.053 | [20] -0.056

EEF1A1, A0A087WVQ9
inactive: [1] 0.011 | [2] 0.047 | [15] -0.069 | [3] 0.027 | [4] -0.003 | [16] -0.026 | [5] -0.016 | [6] -0.12 | [7] 0.077 | [17] 0.013 | [8] -0.005 | [18] -0.102 | [9] 0.042 | [10] 0.062 | [11] 0.071 | [12] 0.011 | [13] 0.115 | [19] -0.073 | [14] 0.026 | [20] -0.054

DUSP9 (UniProt Q99956)
inactive: [1] 0 | [2] 0.034 | [15] 0.014 | [3] -0.023 | [4] -0.004 | [16] 0.028 | [5] 0.01 | [6] -0.115 | [7] 0.06 | [17] -0.038 | [8] -0.054 | [18] -0.178 | [9] 0.012 | [10] -0.222 | [11] -0.042 | [12] -0.024 | [13] 0.101 | [19] 0.028 | [14] -0.101 | [20] 0.013

DPY19L4 (UniProt Q7Z388)
inactive: [1] 0.038 | [15] 0.152 | [3] 0.334 | [16] -0.098 | [5] 0.037 | [6] -0.02 | [7] -0.029 | [17] -0.056 | [8] -0.024 | [18] 0.003 | [9] -0.044 | [10] -0.058 | [11] -0.137 | [12] -0.008 | [13] -0.097 | [19] 0.072 | [20] -0.037

EDEM2 (UniProt Q9BV94)
inactive: [1] 0.021 | [2] 0.03 | [3] 0.061 | [4] 0.05 | [16] -0.036 | [5] -0.06 | [6] 0.013 | [7] 0.018 | [17] -0.016 | [8] -0.004 | [18] -0.044 | [9] -0.019 | [10] 0.008 | [11] -0.005 | [12] 0.027 | [13] 0.017 | [19] 0.07 | [14] -0.085 | [20] -0.065

DRAP1 (UniProt E9PQX9)
inactive: [1] -0.026 | [2] -0.016 | [15] 0.068 | [3] -0.011 | [4] 0.005 | [5] -0.078 | [6] 0.038 | [7] 0.179 | [8] 0.052 | [10] -0.102 | [11] 0.188 | [12] 0.188 | [13] 0.003 | [14] 0.056

E4F1 (UniProt Q66K89)
inactive: [1] 0.031 | [2] 0.064 | [15] -0.239 | [4] -0.046 | [16] -0.006 | [5] -0.097 | [6] 0.03 | [7] 0.023 | [17] 0.062 | [8] -0.071 | [18] -0.071 | [9] 0.264 | [10] -0.117 | [11] 0.012 | [19] 0.123 | [14] 0.019 | [20] -0.076

EED, A0A5F9ZI63
inactive: [1] -0.019 | [2] 0.034 | [15] -0.029 | [3] 0.005 | [4] 0.015 | [16] -0.012 | [5] -0.047 | [6] 0.049 | [7] 0.026 | [17] 0.031 | [8] -0.007 | [18] -0.026 | [9] 0.039 | [10] 0.003 | [11] 0.036 | [12] 0.004 | [13] 0.063 | [19] -0.01 | [14] 0.013 | [20] -0.025

DYNC1I1 (UniProt O14576)
inactive: [1] -0.184 | [2] 0.124 | [3] 0.15 | [4] -0.025 | [5] 0.145 | [6] -0.035 | [7] -0.017 | [8] 0.004 | [9] -0.03 | [10] 0.062 | [11] 0.029 | [12] 0.05 | [13] -0.06 | [14] -0.03
